Laboratory results published in article PMC12393827.
These are yes or no findings as the source states them, for the method shown. Binding seen in cells or lysates may run through a third protein. A yes stands for co-enrichment or nearness to the bait. Other partners may have been found. No binding means not detected with the bait. Values belong to the molecule of their own block, whether it stands above or below them.

The chains behind the UniProt entries cited, without tags or fusion partners. Residues count along the entry.
UniProt Q13136: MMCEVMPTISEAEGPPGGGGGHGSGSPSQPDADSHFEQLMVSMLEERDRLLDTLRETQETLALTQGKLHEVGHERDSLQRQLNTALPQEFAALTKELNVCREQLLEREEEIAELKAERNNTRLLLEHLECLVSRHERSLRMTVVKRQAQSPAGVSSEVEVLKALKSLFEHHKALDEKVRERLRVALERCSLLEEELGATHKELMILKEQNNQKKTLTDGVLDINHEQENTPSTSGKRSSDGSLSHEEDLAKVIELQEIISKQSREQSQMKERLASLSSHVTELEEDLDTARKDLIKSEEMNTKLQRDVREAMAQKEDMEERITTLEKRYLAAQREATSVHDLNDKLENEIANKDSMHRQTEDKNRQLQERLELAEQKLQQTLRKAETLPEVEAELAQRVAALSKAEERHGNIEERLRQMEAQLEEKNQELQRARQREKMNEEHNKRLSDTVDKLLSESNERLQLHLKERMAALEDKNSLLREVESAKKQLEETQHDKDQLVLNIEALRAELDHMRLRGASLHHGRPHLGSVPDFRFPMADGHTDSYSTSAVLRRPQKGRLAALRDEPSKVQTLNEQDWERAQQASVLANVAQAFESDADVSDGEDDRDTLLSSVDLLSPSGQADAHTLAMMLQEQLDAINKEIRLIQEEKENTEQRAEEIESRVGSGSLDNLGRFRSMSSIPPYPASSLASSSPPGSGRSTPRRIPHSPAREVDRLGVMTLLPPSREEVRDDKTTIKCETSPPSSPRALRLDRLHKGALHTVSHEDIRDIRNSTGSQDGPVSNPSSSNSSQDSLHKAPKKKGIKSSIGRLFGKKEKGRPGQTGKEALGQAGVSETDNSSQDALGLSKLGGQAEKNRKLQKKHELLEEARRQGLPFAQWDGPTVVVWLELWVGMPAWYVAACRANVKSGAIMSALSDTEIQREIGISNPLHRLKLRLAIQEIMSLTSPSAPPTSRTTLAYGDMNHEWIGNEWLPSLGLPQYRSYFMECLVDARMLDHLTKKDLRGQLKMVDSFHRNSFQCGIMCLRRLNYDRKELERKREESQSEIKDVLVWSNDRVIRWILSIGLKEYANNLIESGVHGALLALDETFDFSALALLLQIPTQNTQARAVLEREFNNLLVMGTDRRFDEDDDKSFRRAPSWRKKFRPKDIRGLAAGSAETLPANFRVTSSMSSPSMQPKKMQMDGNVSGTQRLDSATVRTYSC
UniProt A2A8L5, residues 30-1898: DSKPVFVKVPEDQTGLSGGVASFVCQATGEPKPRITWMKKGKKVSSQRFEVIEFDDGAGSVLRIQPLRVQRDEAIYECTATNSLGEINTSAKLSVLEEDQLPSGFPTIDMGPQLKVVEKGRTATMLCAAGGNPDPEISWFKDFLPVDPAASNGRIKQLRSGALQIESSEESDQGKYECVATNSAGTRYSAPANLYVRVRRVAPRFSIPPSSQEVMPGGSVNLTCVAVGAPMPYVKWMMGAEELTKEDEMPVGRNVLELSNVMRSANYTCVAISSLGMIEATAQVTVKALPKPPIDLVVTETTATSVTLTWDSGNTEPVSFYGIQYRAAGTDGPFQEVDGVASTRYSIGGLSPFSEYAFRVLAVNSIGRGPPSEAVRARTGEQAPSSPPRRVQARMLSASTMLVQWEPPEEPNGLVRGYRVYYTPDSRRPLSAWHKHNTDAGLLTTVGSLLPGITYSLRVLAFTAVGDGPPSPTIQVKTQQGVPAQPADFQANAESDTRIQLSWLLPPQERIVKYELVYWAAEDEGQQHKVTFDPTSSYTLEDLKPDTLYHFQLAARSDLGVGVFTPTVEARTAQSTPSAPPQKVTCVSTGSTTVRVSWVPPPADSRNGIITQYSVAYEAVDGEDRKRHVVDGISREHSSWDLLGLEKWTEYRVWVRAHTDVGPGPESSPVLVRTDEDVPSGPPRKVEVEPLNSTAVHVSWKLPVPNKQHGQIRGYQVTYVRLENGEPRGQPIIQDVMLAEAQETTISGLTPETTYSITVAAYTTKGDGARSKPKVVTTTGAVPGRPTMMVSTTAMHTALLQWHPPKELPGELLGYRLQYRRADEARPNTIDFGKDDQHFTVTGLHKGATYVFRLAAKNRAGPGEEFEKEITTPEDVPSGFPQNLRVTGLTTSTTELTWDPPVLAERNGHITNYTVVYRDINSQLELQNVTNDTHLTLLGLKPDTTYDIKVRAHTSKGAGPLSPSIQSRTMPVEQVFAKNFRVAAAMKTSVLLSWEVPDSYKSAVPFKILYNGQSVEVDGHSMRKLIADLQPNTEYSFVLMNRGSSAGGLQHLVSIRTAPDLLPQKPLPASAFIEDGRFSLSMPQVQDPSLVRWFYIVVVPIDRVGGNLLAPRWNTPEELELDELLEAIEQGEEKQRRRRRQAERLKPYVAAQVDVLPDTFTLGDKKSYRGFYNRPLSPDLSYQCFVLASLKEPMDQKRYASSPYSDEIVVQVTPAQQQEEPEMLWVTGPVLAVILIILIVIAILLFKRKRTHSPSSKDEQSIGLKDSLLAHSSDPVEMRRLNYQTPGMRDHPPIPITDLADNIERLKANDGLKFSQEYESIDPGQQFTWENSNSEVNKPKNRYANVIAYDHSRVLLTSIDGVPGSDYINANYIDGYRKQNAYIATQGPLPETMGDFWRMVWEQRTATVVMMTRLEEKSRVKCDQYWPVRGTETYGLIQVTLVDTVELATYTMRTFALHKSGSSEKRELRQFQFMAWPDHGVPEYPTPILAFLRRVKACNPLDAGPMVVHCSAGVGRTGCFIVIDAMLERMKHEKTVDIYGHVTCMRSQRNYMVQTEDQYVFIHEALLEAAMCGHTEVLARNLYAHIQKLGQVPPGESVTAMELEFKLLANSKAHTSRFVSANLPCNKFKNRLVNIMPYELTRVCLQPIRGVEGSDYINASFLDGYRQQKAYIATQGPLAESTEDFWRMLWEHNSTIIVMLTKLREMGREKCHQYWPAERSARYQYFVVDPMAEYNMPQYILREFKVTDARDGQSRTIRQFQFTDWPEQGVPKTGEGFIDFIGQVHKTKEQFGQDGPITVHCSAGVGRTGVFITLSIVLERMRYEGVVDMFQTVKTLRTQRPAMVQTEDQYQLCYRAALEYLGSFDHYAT
UniProt B2RXQ2: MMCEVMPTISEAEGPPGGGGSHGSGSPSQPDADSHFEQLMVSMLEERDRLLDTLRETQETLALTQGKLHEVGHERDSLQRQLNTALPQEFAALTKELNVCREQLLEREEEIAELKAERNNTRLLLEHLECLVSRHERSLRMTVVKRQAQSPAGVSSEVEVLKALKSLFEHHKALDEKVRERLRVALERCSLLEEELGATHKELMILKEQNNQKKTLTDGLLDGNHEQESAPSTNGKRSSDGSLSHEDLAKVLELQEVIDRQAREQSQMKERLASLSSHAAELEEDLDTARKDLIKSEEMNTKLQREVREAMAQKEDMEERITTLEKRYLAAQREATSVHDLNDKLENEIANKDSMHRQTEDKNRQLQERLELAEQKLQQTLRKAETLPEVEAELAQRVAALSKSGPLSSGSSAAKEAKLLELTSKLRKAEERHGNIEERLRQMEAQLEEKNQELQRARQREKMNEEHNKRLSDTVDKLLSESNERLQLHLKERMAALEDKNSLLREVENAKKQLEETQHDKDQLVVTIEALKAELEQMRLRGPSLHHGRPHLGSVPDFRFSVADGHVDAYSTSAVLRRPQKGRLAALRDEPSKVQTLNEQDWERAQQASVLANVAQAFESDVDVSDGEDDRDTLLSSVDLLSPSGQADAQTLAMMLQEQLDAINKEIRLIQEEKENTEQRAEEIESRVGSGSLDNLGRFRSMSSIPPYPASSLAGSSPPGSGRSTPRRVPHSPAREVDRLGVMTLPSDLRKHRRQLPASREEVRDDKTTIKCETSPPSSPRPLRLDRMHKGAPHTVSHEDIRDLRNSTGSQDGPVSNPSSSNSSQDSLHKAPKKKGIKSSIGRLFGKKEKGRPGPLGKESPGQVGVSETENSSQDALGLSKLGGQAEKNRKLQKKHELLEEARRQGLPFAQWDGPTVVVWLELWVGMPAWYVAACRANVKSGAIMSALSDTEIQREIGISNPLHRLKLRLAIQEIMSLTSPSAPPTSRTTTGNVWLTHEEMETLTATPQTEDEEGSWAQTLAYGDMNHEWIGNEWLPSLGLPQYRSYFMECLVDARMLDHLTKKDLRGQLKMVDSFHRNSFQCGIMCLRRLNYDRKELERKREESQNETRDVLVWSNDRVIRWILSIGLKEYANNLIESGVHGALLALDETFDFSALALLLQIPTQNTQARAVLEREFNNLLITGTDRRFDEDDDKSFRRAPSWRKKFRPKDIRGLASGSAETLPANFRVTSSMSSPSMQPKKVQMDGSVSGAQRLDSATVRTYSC
UniProt Q8BSS9: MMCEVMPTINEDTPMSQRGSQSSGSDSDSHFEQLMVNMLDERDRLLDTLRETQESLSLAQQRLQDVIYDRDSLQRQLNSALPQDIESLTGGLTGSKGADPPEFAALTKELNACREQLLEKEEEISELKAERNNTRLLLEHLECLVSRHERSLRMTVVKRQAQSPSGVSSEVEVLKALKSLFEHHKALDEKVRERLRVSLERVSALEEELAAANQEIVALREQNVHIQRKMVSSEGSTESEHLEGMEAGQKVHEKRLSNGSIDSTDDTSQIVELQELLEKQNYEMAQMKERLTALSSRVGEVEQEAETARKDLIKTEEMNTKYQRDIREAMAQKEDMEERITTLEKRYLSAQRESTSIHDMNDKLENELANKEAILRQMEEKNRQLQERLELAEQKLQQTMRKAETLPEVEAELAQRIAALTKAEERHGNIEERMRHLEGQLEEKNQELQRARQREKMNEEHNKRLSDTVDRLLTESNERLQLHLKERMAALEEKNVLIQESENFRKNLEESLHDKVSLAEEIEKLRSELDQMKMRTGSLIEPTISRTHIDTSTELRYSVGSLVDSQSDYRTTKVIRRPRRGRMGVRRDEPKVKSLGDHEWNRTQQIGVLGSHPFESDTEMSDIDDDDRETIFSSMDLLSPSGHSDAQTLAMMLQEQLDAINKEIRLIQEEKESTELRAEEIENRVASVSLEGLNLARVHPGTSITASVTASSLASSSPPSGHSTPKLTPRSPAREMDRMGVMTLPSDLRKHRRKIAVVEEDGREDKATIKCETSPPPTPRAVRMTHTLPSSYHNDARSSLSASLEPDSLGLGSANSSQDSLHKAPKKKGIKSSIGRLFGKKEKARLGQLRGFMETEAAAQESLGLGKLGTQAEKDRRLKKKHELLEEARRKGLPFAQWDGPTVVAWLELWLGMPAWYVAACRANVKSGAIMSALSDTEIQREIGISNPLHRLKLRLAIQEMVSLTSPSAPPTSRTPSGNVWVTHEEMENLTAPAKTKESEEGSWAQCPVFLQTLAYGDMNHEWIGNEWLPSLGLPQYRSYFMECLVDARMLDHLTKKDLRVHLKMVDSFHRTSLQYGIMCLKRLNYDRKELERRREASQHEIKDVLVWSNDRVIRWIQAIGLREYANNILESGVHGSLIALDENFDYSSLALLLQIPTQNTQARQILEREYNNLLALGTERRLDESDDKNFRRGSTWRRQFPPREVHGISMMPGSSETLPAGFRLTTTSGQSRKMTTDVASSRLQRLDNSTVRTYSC

Biological target: GFP–liprin-α1 (not stated (human or mouse cDNA cloned)) (UniProt Q13136)
Assay: affinity purification with mass spectrometry; lysates of MIN6 cells expressing GFP–liprin-α1 or GFP (control), after 2.8 mM or 16.7 mM glucose KRBH for 2 h (results pooled); GFP-Trap agarose beads, 4°C, 1 h; lysis buffer 1% NP40, 10% glycerol, 137 mM NaCl, 25 mM Tris pH 7.4; DIA proteomics, DIA-NN, SAINTexpress, Bayesian FDR <0.05

binding: binds
Molecule: PTPRF (LAR) (from UniProt A2A8L5 30-1898) (receptor)

binding: binds
Molecule: endogenous liprin-α1 (from UniProt B2RXQ2 1-1266)

binding: binds
Molecule: liprin-α2 (from UniProt Q8BSS9 1-1257)

binding: no binding
B1: ELKS (protein, UniProt Q99MI1 1-1120)
chain: MYGSARSVGKVEPSSQSPGRSPRLPRSPRLGHRRTNSTGGSSGNSVGGGSGKTLSMENIQSLNAAYATSGPMYLSDHENVGAETPKSTMTLGRSGGRLPYGVRMTAMGSSPNIASSGVASDTIAFGEHHLPPVSMASTVPHSLRQARDNTIMDLQTQLKEVLRENDLLRKDVEVKESKLSSSMNSIKTFWSPELKKERALRKDEASKITIWKEQYRVVQEENQHMQMTIQALQDELRIQRDLNQLFQQDSSSRTGEPCVAELTEENFQRLHAEHERQAKELFLLRKTLEEMELRIETQKQTLNARDESIKKLLEMLQSKGLSAKATEEDHERTRRLAEAEMHVHHLESLLEQKEKENNMLREEMHRRFENAPDSAKTKALQTVIEMKDSKISSMERGLRDLEEEIQMLKSNGALSSEEREEEMKQMEVYRSHSKFMKNKVEQLKEELSSKDAQGEELKKRAAGLQSEIGQVKQELSRKDTELLALQTKLETLTNQFSDSKQHIEVLKESLTAKEQRAAILQTEVDALRLRLEEKETMLNKKTKQIQDMAEEKGTQAGEIHDLKDMLDVKERKVNVLQKKIENLQEQLRDKEKQMSSLKERVKSLQADTTNTDTALTTLEEALADKERTIERLKEQRDRDEREKQEEIDTYKKDLKDLREKVSLLQGDLSEKEASLLDIKEHASSLASSGLKKDSRLKTLEIALEQKKEECLKMESQLKKAHEATLEARASPEMSDRIQQLEREISRYKDESSKAQTEVDRLLEILKEVENEKNDKDKKIAELESLTSRQVKDQNKKVANLKHKEQVEKKKSAQMLEEARRREDSLSDSSQQLQDSLRKKDDRIEELEEALRESVQITAEREMVLAQEESARTNAEKQVEELLMAMEKVKQELESMKAKLSSTQQSLAEKETHLTNLRAERRKHLEEVLEMKQEALLAAISEKDANIALLELSSSKKKTQEEVAALKREKDRLVQQLKQQTQNRMKLMADNYEDDHFRSSRSNQTNHKPSPDQIIQPLLELDQNRSKLKLYIGHLTALCHDRDPLILRGLTPPASYNADGEQAAWENELQQMTQEQLQNELEKVEGDNAELQEFANTILQQIADHCPDILEQVVNALEESS

binding: binds
B2: GIT1 (protein, UniProt Q68FF6 1-770)
chain: MSRKGPRAEVCADCSAPDPGWASISRGVLVCDECCSVHRSLGRHISIVKHLRHSAWPPTLLQMVHTLASNGANSIWEHSLLDPAQVQSGRRKANPQDKVHPIKSEFIRAKYQMLAFVHKLPCRDDDGVTAKDLSKQLHSSVRTGNLETCLRLLSLGAQANFFHPEKGTTPLHVAAKAGQTLQAELLVVYGADPGSPDVNGRTPIDYARQAGHHELAERLVECQYELTDRLAFYLCGRKPDHKNGHYIIPQMADRSRQKCMSQSLDLSELAKAAKKKLQALSNRLFEELAMDVYDEVDRRENDAVWLATQNHSTLVTERSAVPFLPVNPEYSATRNQGRQKLARFNAREFATLIIDILSEAKRRQQGKSLSSPTDNLELSARSQSELDDQHDYDSVASDEDTDQEPLPSAGATRNNRARSMDSSDLSDGAVTLQEYLELKKALATSEAKVQQLMKVNSSLSDELRRLQREIHKLQAENLQLRQPPGPVPPPSLPSERAEHTLMGPGGSTHRRDRQAFSMYEPGSALKPFGGTPGDELATRLQPFHSTELEDDAIYSVHVPAGLYRIRKGVSASSVPFTPSSPLLSCSQEGSRHASKLSRHGSGADSDYENTQSGDPLLGLEGKRFLELSKEDELHPELESLDGDLDPGLPSTEDVILKTEQVTKNIQELLRAAQEFKHDSFVPCSEKIHLAVTEMASLFPKRPALEPVRSSLRLLNASAYRLQSECRKTVPPEPGAPVDFQLLTQQVIQCAYDIAKAAKQLVTITTREKKQ

binding: binds
B3: liprin-β1 (protein, UniProt Q8C8U0 1-969)
chain: MMSDASDMLAAALEQMDGIIAGSKALEYSNGIFDCQSPTSPFMGSLRALHLVEDLRGLLEMMETDEKEGLRCQIPDSTAEVLIEWLQNQMTNGHLPGNGDVYQERLARLENDKESLVLQVSVLTDQVEAQGEKIRDLEFCLEEHREKLNATEEMLQQELLSRTSLETQKLELMAEISNLKLKLTAVEKDRLDYEDRFRDTEGLIQEINDLRLKVNEMDGERLQYEKKLKSTKDELASLKEQLEEKECEVKRLQERLVCKAKGEGIEVLDRDIEVQKMKKAVESLMAANEEKERKIEDLRQCLSRYRKMQDPAVLAQGQDSECEGLFHSSSISTLLDAQGFSDLERSTSSTPGMGSPSRDLLHTSAPEEFHTSVLQASIPSLLPPSVDVDTCEKPKLPTKPETSFEEGDGRAILGAAAEVSLSDGVSTSSLQKSSSLGNLKKEASDGTDKAPTDSRTFGTLPPKVPGHEASVDDNPFGTRKARSSFGRGFFKIKSGKRTASAPNLAETEKETAEHLNLAGTSRSKGSQGTSPFPMSPPSPDSRKKSRGIMRLFGKLRRSQSTTFNPDDMSEPEFKRGGTRATAGPRLGWSRDLGQSNSDLDMPFAKWTKEQVCSWLAEQGLGSYLSSGKHWIISGQTLLQASQQDLEKELGIKHSLHRKKLQLALQALGSEEETNYGKLDFNWVTRWLDDIGLPQYKTQFDEGRVDGRMLHYMTVDDLLSLKVVSVLHHLSIKRAIQVLRINNFEPNCLRRRPSDENSITPSEVQQWTNHRVMEWLRSVDLAEYAPNLRGSGVHGGLMVLEPRFNVETMAQLLNIPPNKTLLRRHLATHFNLLIGAEAQHQKRDAMELPDYVLLTATAKVKPKKLTFSNFGNLRKKKHEDGEEYVCPMELGQASGSSQKGFRPGLDMRLYEEDDLDRLEQMEDSEGTVRQIGAFSEGINNLTHMLKEDDMFKDFAARSPSASITDEDSNV
